Values of other authors in patent US20140296143A1, “Angiotensin-(1-7) As A Chemoprevention Agent” (Wake Forest Innovations, priority 2008, published 2014).

Settings: 11 patients with essential hypertension, 6 months of treatment, Luque 1996, cited from earlier work

Structure (SMILES): C[C@H](CS)C(=O)N1CCC[C@H]1C(=O)O [Captopril, reference compound]
- plasma Ang-(1-7) levels after treatment (before 0.042±0.040): 0.083 ± 0.079 nM
- plasma Ang-(1-7) levels after treatment (before 38±36): 7.49 ± 13.7 pg/mL

Where two headings read alike, the source gives them in different places.
